The record followed here is PubChem BioAssay AID2685 (National Center for Advancing Translational Sciences (NCATS), 2010).

The assay can be described thus: qHTS Assay for Lipid Storage Modulators in Drosophila S3 Cells.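 As to cell number change: cells counted by Cell Tracker Red CMTPX staining in the red channel.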 The settings on record: BODIPY lipid droplet fluorescence, 18-24 h; for cell number change: measured here: cell count max response, cells fed with added oleic acid. The gist of the method: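 Drosophila S3 cells loaded with oleic acid (400 uM, as added) and compounds at several concentrations; lipid droplets imaged by 488-nm laser-scanning cytometry, 500–530 nm intensity and object ratio to cell channel. Percent activity normalized to 20 uM Triacsin C.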

[1] abbreviates: measured here: cell number channel AC50, cells fed with added oleic acid.
The mark [2] stands for this setting: measured here: lipid fluorescence (Fed channel) AC50, cells fed with added oleic acid.

SMILES strings stand for the structures. This is one part of the list. Further columns of the screen follow, without active or inactive calls. The list favours compounds with an active or inconclusive main result. Words in brackets tell the shape of the fitted curve; partial curves, single points and poor fits give uncertain potencies.

Take `Cc1c(Cl)cccc1NC(=O)CCC(=O)N/N=C/c1ccco1`: the cell number change amounted to 25.2%. In addition, the half-maximal activity concentration (AC50) under setting [1] is 0.731 µM [rising, full curve, poor fit]. For the same molecule, under setting [2], the AC50 was 29.1 µM [rising, single point].

Take `O=S(=O)(Nc1cccc(CO)c1)c1cccs1`: the cell number change is -1.72%. Besides, the AC50 under setting [2] is 0.116 µM [falling, full curve, poor fit].

Consider `COc1ccc(NC(=O)CSc2ccccn2)cc1OC`, for which the cell number change is 6.77%. Besides, the AC50 under setting [1] is 1.46 µM [rising, partial curve]. Also, under setting [2], the AC50 is 23.1 µM [rising, partial curve].

As for `O=S(=O)(c1ccc(Cl)cc1)N1CCN(Cc2ccc(O)c3ncccc23)CC1`, the cell number change is 17.5%.

As for `O=C(NNC(=O)C1COc2ccccc2O1)c1cccc([N+](=O)[O-])c1` (stereo not given), the cell number change was found to be 1.7%. Besides, under setting [2], the AC50 was 4.11 µM [falling, partial curve, poor fit].

As to `CCOC(=O)Cc1cn2c(=O)cc(CSCC(=O)Nc3ccc(C)c(C)c3)nc2s1`, the cell number change stood at 73.8%. Also, the AC50 under setting [1] is 29.1 µM [rising, single point]. Under setting [2], the AC50 is 20.6 µM [rising, partial curve].

Regarding `O=C(Cn1nnc(-c2cccc(C(F)(F)F)c2)n1)N1CCCCCC1`, the cell number change is -2.74%. For the same molecule, under setting [2], the AC50 was 6.51 µM [falling, single point].

Take `CCOC(=O)N1CCC(NC(=O)c2ccc(OC)c(CN3CC(=O)N4CCCC4C3=O)c2)CC1` (stereo not given): the cell number change is -4.54%. In addition, the AC50 under setting [1] was 0.058 µM [rising, single point].

With `Cc1onc(-c2ccccc2Cl)c1C(=O)Nc1ccc(-n2nncc2-c2ccco2)cc1`, the cell number change came to 72.2%.

Regarding `CC(C)CC(=O)Nc1cccc(-c2nc3ccccc3[nH]2)c1`, the cell number change was -24.1%. Also, the AC50 under setting [2] was 29.1 µM [falling, single point].

With `O=C(/C=C/c1ccccc1)N1CCN(CCN2C(=O)c3cccc4cccc(c34)C2=O)CC1`, the cell number change was 14.1%. Moreover, the AC50 under setting [2] was 5.8 µM [rising, full curve].

Regarding `COc1cccc(Cn2cnc3c(NS(=O)(=O)c4cc(Cl)ccc4Cl)c(C)c(C)cc32)c1`, the AC50 was 0.092 µM [rising, full curve, poor fit] under setting [1] and 0.058 µM [rising, full curve, poor fit] under setting [2].

As to `Cc1ccc(S(=O)(=O)CCC(=O)N(C)C2CCCCC2)cc1`, the cell number change came to 13.4%. Also, the AC50 under setting [1] was 0.651 µM [rising, full curve, poor fit]. Under setting [2], the AC50 is 2.31 µM [rising, partial curve].

Regarding `Cc1cc(=O)oc(C)c1C(=O)OC(C(=O)c1ccccc1)c1ccccc1` (stereo not given), the cell number change is 30.6%. For the same molecule, the AC50 under setting [1] was 29.1 µM [rising, single point].

With `CCCCCCn1c(N2CCC(C(N)=O)CC2)nc2c1c(=O)[nH]c(=O)n2C`, the cell number change is -13.3%. Under setting [2], the concentration at half-maximal activity (AC50) was 29.1 µM [rising, single point].

As to `Cc1ccccc1-n1c(SCC(=O)N2CCCC2)nnc1-c1ccccn1`, the cell number change was 4.31%. The AC50 under setting [2] was 23.1 µM [rising, single point].

`Cc1nnc(NC(=O)CSc2nnc(-c3ccco3)n2C(C)C)s1`: the cell number change is 6.84%. Moreover, the AC50 under setting [2] is 29.1 µM [falling, single point].

For the molecule `CC1CCCC(C)N1C(=O)/C=C/c1ccc(S(=O)(=O)N2CCOCC2)cc1` (stereo not given), the cell number change was found to be 28.5%.

With `COc1ccc(/C=N\NC(=O)c2ccc(-c3ccccc3)cc2)c(OC)c1OC`, the cell number change was determined as 2.89%. Moreover, the AC50 under setting [2] is 0.731 µM [falling, full curve, poor fit].

With `c1ccc(-c2ccccc2OCCN2CCCCC2)cc1`, the cell number change is -16.7%. Moreover, the AC50 under setting [1] is 3.26 µM [falling, single point].

On to `COc1ccc(OC)c(-c2csc(N(C)C(=O)c3ccco3)n2)c1`, for which the cell number change came to 75.2%. Besides, under setting [1], the AC50 was 25.9 µM [rising, single point].

In the case of `O=C(COC(=O)C1CC(=O)N(Cc2ccco2)C1)Nc1ccccc1[N+](=O)[O-]` (stereo not given), the AC50 under setting [1] is 4.61 µM [rising, single point] and the concentration at half-maximal activity (AC50) under setting [2] is 6.51 µM [falling, single point].

`O=C(NOCc1ccccc1)c1ccc([N+](=O)[O-])cc1`: the cell number change was -34.1%. Besides, the half-maximal activity concentration (AC50) under setting [2] is 1.84 µM [rising, partial curve].

With `O=C(OCC(=O)N1CCOCC1)C(c1ccccc1)c1ccccc1`, the cell number change was -77.5%. In addition, the AC50 under setting [1] is 29.1 µM [falling, single point]. Moreover, under setting [2], the AC50 is 20.6 µM [falling, partial curve].

Regarding `O=C(N/N=C/c1ccccn1)c1ccc(N/N=C/c2ccccn2)cc1`, the cell number change is -12.8%. The AC50 under setting [1] was 0.291 µM [rising, full curve].

Consider `O=C(c1cc(-c2ccccc2)nn1-c1ccccc1)N1CCN(S(=O)(=O)c2c(F)cccc2F)CC1`, for which the cell number change was -8.46%. For the same molecule, the half-maximal activity concentration (AC50) under setting [2] is 29.1 µM [rising, single point].

`CCS(=O)(=O)N1CCCC(C(=O)NC2CCCCC2)C1` (stereo not given): the AC50 under setting [2] is 2.06 µM [rising, partial curve, poor fit].

Turning to `CCCc1ccc(S(=O)(=O)N/N=C(/C)c2ccc3c(c2)OCO3)cc1`, under setting [2], the AC50 is 29.1 µM [rising, single point].

Take `O=C1CSC(c2cccc([N+](=O)[O-])c2)N1C1CC2CCC1C2` (stereo not given): the cell number change amounted to 28.8%. Further, the AC50 under setting [1] was 0.461 µM [rising, full curve, poor fit].

For the molecule `S=C(NC12CC3CC(CC(C3)C1)C2)N1CCOCC1`, the cell number change is 14.4%. The concentration at half-maximal activity (AC50) under setting [2] was 6.51 µM [falling, single point].

Take `CCOCCCNC(=O)N1CCOCC1`: the cell number change was -36.6%. The AC50 under setting [1] was 0.184 µM [falling, full curve, poor fit].

As for `CC(NC(=O)CCl)c1ccc(Cl)c(Cl)c1` (stereo not given), the AC50 under setting [2] is 18.4 µM [falling, partial curve].

As to `Cc1cc(Nc2ccccc2)nc(NCc2ccccc2)n1`, the half-maximal activity concentration (AC50) under setting [2] was 2.06 µM [falling, full curve, poor fit].

`Cc1cc2ccccc2c(=O)n1CC(=O)NCC1COc2ccccc2O1` (stereo not given): the cell number change came out at 39.3%. Moreover, the AC50 under setting [1] was 8.2 µM [rising, partial curve]. In addition, the AC50 under setting [2] was 14.6 µM [rising, partial curve].

For `COCC(=O)Nc1cc(Cl)c(OC)cc1OC`, the cell number change is -1.08%. Also, under setting [2], the AC50 is 29.1 µM [rising, single point].

Consider `CCOC(=O)CN(C(=O)CSc1nnc(-c2ccc(OC)c(OC)c2)o1)c1ccccc1`, for which the cell number change was -0.209%.

With `Nc1nc(-c2ccc(C(=O)O)cc2)cs1`, the cell number change was -29.2%. Further, the AC50 under setting [1] was 0.0058 µM [falling, full curve].

As for `CCCCSc1cnn(-c2ccccc2)c(=O)c1SCCCC`, the cell number change is -32.4%. Also, the AC50 under setting [1] is 29.1 µM [falling, single point]. Further, under setting [2], the AC50 is 29.1 µM [falling, single point].
